# Assay: general procedure: Fmoc solid-phase peptide synthesis; TentaGel S Ram (0.23 mmol/g, 1.2 g); preformed OBt or OAt esters (3 eq.); HATU and DIEA for OAt esters
# Details: whole synthesis, HPLC and MS, scale of the general procedure 1 g resin
substance,measurement,value
H-Ac5c-Val-Aib-Glu-Ile-Gln-Leu-Met-His-Gln-Har-Ala-Lys( )Trp-Leu-Asn-Asp( )-NH2,crude HPLC purity,24%
same,final HPLC purity,96%
